The list shows a part of the results.
Legend:
Assay in all cases: log2 fold change, soluble protein after heating vs DMSO (PISA); higher = thermal stabilisation; K562 cells, 10 uM, 30 min; active = over 0.2 and 3.5 SD of the protein, either way, in both replicates (recomputed)
[1] = compound: CC[C@@H]1C(=O)N(C)c2cnc(Nc3ccc(C(=O)NC4CCN(C)CC4)cc3OC)nc2N1C1CCCC1
Summary of the method: (§1)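 Soluble protein was defined as the supernatant after 21,000xg for 90 min. It came from K562 cells at 2×10^6 cells/mL given 10 μM compound for 30 min, heated in aliquots for 3 min across 48°C-58°C, pooled, and extracted in PBS with 0.5% NP-40 at 4°C, and was quantified by TMTpro 16plex LC-MS/MS with equalised channel sums. Thermal stability against control samples, from duplicates, is reported as log2 fold change.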

By UniProt entry, the sequences of proteins in these tests, tags left out. Where a name states a change or a piece, a line headed by the entry shows the natural chain unless it says otherwise.
UniProt Q9BTK6, whole entry, looked up: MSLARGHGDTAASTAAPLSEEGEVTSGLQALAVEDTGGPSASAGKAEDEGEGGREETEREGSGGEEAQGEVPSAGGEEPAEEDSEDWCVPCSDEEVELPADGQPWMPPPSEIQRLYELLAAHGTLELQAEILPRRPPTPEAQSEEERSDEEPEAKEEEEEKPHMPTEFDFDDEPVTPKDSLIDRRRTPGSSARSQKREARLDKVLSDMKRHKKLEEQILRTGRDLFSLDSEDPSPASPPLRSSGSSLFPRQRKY
UniProt Q7Z2X7: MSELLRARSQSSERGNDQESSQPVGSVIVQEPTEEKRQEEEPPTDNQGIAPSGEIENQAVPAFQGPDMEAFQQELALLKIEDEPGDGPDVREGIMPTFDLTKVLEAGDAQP
UniProt P13667: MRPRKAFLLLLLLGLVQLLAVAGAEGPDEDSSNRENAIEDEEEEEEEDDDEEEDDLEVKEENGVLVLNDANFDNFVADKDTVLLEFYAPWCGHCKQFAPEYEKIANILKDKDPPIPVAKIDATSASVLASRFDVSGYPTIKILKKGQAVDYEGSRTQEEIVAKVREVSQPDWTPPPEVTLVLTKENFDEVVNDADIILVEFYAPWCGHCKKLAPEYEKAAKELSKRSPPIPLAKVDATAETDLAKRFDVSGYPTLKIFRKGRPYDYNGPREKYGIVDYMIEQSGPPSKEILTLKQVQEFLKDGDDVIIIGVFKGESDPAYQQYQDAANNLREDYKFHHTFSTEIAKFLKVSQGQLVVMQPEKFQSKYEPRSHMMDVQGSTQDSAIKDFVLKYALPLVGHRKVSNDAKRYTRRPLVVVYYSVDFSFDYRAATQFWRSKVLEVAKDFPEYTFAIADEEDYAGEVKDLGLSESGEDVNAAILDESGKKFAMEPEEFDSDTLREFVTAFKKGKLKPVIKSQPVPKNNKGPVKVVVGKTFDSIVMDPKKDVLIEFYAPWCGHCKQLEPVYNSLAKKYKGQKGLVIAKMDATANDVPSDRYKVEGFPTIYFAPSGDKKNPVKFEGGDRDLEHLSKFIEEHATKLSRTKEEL
UniProt Q8NBP7, whole entry, looked up: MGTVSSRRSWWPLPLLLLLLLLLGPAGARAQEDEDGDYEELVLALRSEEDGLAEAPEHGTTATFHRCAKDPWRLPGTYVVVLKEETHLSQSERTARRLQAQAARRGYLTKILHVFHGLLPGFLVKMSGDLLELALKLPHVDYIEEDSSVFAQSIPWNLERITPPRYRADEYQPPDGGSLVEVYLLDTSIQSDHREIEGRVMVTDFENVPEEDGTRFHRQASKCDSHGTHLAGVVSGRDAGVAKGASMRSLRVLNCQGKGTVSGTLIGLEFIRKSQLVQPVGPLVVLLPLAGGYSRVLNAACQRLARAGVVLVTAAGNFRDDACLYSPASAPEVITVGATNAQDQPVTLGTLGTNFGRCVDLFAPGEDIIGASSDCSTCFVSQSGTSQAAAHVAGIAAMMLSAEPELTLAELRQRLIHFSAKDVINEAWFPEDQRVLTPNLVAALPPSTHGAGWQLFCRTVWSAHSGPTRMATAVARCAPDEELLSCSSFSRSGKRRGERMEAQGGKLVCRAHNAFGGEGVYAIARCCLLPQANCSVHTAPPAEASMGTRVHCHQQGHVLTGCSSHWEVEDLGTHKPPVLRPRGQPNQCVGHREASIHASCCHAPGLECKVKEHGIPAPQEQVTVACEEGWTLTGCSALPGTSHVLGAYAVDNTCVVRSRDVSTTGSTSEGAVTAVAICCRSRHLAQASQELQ
UniProt Q9H999: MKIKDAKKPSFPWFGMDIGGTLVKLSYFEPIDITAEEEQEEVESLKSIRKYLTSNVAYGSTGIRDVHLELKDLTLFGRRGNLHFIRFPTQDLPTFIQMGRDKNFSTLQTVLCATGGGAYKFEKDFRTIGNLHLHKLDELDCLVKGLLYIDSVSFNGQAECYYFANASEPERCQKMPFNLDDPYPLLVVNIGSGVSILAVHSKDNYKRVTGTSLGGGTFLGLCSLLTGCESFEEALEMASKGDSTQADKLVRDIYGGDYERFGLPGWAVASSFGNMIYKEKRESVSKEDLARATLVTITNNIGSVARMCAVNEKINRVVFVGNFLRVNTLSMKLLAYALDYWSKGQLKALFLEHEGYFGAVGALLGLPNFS
UniProt O95613: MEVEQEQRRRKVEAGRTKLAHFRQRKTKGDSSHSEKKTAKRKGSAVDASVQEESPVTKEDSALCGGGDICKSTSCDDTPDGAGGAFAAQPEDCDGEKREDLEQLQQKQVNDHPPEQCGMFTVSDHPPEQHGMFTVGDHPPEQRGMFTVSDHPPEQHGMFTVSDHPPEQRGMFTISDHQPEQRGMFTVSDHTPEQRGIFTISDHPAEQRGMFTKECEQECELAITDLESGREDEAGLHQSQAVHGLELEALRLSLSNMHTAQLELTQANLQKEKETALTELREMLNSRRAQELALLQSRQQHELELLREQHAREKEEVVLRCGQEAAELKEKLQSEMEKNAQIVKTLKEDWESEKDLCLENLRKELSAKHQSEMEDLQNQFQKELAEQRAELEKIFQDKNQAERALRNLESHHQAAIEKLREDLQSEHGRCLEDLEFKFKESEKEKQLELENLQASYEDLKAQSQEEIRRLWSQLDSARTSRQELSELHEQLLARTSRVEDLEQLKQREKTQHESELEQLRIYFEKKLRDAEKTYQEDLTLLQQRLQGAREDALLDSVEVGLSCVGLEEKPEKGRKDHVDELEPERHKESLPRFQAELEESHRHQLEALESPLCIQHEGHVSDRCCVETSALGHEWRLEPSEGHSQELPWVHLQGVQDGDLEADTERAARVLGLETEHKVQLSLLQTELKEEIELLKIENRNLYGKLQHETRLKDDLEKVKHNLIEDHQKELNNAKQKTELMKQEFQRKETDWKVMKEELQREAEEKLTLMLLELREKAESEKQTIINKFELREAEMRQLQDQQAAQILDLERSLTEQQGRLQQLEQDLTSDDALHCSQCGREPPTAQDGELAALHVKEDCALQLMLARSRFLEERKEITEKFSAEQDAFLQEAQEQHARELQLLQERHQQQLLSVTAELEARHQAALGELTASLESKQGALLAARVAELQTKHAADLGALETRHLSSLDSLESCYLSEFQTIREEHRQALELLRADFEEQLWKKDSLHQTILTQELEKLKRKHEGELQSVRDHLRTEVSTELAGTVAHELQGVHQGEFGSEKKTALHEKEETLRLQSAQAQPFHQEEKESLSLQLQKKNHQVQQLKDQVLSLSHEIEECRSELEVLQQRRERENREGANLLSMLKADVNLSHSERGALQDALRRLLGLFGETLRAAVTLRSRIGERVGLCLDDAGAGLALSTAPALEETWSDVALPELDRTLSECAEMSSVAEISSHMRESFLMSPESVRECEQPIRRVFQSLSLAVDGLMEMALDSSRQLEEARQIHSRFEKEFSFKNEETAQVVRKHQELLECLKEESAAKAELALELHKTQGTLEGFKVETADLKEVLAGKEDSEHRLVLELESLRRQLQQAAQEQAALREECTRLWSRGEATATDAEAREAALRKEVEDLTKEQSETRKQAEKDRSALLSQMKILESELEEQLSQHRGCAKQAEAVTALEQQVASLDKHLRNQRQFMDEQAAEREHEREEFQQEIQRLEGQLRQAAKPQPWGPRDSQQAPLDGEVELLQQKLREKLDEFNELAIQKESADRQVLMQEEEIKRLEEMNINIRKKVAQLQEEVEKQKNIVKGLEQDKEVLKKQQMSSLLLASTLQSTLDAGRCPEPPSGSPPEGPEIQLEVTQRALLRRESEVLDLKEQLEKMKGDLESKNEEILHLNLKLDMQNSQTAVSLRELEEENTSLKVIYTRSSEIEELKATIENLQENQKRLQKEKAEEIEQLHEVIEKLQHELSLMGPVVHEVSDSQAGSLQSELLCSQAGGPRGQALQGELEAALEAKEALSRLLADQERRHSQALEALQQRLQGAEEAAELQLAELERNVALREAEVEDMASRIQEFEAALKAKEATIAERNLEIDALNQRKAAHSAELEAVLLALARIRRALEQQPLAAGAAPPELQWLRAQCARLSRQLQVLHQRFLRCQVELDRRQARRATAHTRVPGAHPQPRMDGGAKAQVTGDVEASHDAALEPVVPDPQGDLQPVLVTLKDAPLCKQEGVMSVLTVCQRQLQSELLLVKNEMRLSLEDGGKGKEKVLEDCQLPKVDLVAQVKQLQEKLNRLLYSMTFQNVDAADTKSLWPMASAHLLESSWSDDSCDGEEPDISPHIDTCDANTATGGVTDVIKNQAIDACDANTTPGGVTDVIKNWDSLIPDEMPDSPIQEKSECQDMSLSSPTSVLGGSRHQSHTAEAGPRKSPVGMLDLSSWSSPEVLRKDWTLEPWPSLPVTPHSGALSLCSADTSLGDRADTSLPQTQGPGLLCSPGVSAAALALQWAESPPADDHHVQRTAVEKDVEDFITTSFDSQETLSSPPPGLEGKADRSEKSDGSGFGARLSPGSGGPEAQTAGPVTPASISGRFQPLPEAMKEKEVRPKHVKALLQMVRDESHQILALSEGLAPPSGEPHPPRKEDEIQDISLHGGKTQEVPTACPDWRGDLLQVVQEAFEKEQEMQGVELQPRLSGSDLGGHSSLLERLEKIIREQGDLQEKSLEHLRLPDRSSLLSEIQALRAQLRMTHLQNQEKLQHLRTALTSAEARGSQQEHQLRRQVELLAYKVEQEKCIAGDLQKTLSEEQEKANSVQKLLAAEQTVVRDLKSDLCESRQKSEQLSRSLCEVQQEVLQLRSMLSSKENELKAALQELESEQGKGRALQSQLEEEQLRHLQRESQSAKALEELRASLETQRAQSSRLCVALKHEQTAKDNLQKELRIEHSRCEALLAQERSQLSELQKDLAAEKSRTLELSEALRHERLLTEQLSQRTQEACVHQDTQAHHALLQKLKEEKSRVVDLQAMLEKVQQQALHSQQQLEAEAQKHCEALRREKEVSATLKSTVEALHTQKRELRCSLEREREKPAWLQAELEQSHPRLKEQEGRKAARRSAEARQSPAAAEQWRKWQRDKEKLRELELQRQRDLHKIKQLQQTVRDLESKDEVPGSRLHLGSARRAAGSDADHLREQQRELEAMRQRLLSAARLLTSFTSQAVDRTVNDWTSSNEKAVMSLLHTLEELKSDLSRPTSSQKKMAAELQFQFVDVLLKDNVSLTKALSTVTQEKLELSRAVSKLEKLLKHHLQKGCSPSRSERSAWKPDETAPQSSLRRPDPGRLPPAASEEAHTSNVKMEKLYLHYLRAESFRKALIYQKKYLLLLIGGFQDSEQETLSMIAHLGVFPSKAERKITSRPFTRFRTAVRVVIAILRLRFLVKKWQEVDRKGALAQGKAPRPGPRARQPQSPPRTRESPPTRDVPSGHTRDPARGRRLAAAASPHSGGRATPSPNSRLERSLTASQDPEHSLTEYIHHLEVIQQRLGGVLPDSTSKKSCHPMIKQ
UniProt Q9Y5K3: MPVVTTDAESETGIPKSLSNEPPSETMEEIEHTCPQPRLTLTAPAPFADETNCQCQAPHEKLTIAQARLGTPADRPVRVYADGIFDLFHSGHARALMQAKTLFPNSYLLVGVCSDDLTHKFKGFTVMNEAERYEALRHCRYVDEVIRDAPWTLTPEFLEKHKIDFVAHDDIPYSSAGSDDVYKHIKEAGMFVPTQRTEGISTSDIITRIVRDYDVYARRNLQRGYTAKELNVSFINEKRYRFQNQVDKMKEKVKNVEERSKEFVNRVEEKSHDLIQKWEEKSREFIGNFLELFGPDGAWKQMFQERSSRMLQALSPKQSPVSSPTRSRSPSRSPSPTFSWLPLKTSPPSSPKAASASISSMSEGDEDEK
UniProt Q15004: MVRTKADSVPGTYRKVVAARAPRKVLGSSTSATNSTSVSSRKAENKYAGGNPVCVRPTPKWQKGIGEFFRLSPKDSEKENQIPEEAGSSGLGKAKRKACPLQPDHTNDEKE
UniProt Q15102: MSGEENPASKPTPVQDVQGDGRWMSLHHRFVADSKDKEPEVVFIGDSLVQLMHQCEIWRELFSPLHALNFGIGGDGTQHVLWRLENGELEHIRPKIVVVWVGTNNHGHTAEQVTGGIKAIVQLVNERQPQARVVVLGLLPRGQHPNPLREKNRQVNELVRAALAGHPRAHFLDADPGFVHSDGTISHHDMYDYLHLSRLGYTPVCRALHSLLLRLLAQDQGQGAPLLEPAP
UniProt Q53EL6: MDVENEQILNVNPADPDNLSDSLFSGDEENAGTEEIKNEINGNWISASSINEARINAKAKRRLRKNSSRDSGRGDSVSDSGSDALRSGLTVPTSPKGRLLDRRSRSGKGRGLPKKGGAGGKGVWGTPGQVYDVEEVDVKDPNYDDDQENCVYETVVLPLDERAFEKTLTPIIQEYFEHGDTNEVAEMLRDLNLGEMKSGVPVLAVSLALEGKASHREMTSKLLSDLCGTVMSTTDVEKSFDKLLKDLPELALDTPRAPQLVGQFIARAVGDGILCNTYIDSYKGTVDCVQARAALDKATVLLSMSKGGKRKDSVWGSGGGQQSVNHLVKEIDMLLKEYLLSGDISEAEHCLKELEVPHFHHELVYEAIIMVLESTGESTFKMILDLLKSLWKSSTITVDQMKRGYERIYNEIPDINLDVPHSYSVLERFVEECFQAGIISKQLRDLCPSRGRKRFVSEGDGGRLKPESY

volasertib = compound: CC[C@@H]1C(=O)N(C)c2cnc(Nc3ccc(C(=O)N[C@H]4CC[C@H](N5CCN(CC6CC6)CC5)CC4)cc3OC)nc2N1C(C)C [volasertib]
Summary of the method: as §1

[2] = compound: CC[C@H](C)N1C=C(C2=C(C=C(C=C21)C3=CN=C(C=C3)N4CCNCC4)C(=O)NCC5=C(C=C(NC5=O)C)C)C
Summary of the method: as §1

epoxomicin = compound: CC[C@H](C)[C@@H](C(=O)N[C@@H]([C@@H](C)O)C(=O)N[C@@H](CC(C)C)C(=O)[C@]1(CO1)C)NC(=O)[C@H]([C@@H](C)CC)N(C)C(=O)C [epoxomicin]
Summary of the method: as §1

[3] = compound: CCn1c(C(=O)N(C2CC2)C2CC2)cc2c3c(ncn3C)c(Nc3cc(C)n(C)n3)nc21
Summary of the method: as §1

[4] = compound: CCn1cc(-c2ccnc3[nH]c(-c4cccc(CN(C)C)c4)cc23)c(-c2ccc(NC(=O)N(C)C)cc2)n1
Summary of the method: as §1

[5] = compound: CN(C)CC(=O)Nc1ccc2[nH]c(=O)c3ccccc3c2c1
Summary of the method: as §1

rosiglitazone = compound: CN(CCOC1=CC=C(C=C1)C[C@H]2C(=O)NC(=O)S2)C3=CC=CC=N3 (racemic) [rosiglitazone]
Summary of the method: as §1

[6] = compound: CN1C2=C(C3=C1C(=O)N(N=C3)CC4=CC(=CC=C4)N)SC(=C2)S(=O)C
Summary of the method: as §1

[7] = compound: CN1CCC(CNc2ccc3ncc(-c4cccc(OC(F)(F)F)c4)n3n2)CC1
Summary of the method: as §1

Row | Target | log2 fold change [1] | log2 fold change (volasertib) | log2 fold change [2] | log2 fold change (epoxomicin) | log2 fold change [3] | log2 fold change [4] | log2 fold change [5] | log2 fold change (rosiglitazone) | log2 fold change [6] | log2 fold change [7]
1 | PAGR1 (UniProt Q9BTK6) | inactive: 0.024 | inactive: 0.174 | inactive: 0.027 | inactive: 0.054 | inactive: 0.003 | inactive: -0.029 | inactive: 0.03 | inactive: 0.005 | inactive: 0.059 | inactive: 0.079
2 | PES1 (UniProt O00541) | inactive: 0.04 | inactive: -0.048 | inactive: 0.077 | inactive: -0.087 | inactive: -0.16 | inactive: -0.035 | inactive: 0.024 | inactive: -0.06 | inactive: 0.223 | inactive: 0.176
3 | PAK3 isoform 3 (UniProt O75914) | inactive: -0.03 | inactive: 0.006 | inactive: -0.017 | inactive: 0.056 | inactive: 0.032 | inactive: -0.083 | inactive: 0.039 | inactive: 0.016 | inactive: -0.078 | inactive: 0.031
4 | PAXIP1 (UniProt Q6ZW49) | inactive: 0.106 | inactive: -0.164 | inactive: 0.062 | inactive: -0.13 | inactive: 0.092 | inactive: -0.07 | inactive: -0.09 | inactive: 0.148 | inactive: 0.01 | inactive: 0.007
5 | PANK2 (UniProt Q9BZ23) | inactive: -0.066 | inactive: -0.067 | inactive: 0.011 | inactive: 0 | inactive: -0.063 | inactive: -0.047 | inactive: 0.004 | inactive: 0.028 | inactive: -0.024 | inactive: 0.01
6 | PARL (UniProt Q9H300) | inactive: -0.059 | inactive: -0.008 | inactive: -0.009 | inactive: -0.076 | – | inactive: -0.062 | inactive: -0.035 | – | inactive: -0.004 | inactive: -0.134
7 | PAGE2 (UniProt Q7Z2X7) | inactive: 0.085 | inactive: -0.047 | inactive: -0.025 | inactive: 0.118 | inactive: -0.064 | inactive: 0.067 | inactive: 0.009 | inactive: 0.002 | inactive: -0.11 | inactive: 0.013
8 | PC (UniProt P11498) | inactive: -0.041 | inactive: -0.069 | inactive: 0.067 | inactive: 0.041 | – | inactive: -0.217 | inactive: 0.027 | – | inactive: -0.128 | inactive: 0.03
9 | PDIA4 (UniProt P13667) | inactive: 0.003 | inactive: -0.004 | inactive: 0.027 | inactive: 0.022 | inactive: 0.053 | inactive: 0.003 | inactive: -0.011 | inactive: -0.006 | inactive: 0.005 | inactive: 0.111
10 | PCSK9 (UniProt Q8NBP7) | inactive: -0.049 | inactive: -0.117 | inactive: 0.015 | inactive: -0.054 | inactive: -0.008 | inactive: 0.079 | inactive: 0.03 | inactive: -0.004 | – | inactive: 0.097
11 | PELO (UniProt Q9BRX2) | inactive: -0.017 | inactive: -0.387 | inactive: 0.09 | inactive: -0.058 | – | inactive: 0.007 | inactive: -0.017 | – | inactive: 0.138 | inactive: -0.312
12 | PANK3 (UniProt Q9H999) | inactive: 0.101 | inactive: -0.001 | inactive: -0.135 | inactive: 0.048 | inactive: -0.016 | inactive: -0.05 | – | inactive: 0.054 | inactive: 0.009 | inactive: 0.014
13 | PCNT (UniProt O95613) | inactive: 0.08 | inactive: 0.131 | inactive: -0.147 | inactive: -0.177 | – | inactive: -0.002 | inactive: -0.101 | – | inactive: 0.158 | active: -0.567
14 | PCGF2 (UniProt P35227) | inactive: -0.131 | inactive: -0.089 | inactive: 0.012 | inactive: -0.005 | – | inactive: -0.02 | inactive: -0.03 | – | inactive: -0.071 | active: -0.282
15 | PEX1 (UniProt O43933) | inactive: 0.014 | inactive: -0.022 | inactive: -0.006 | inactive: 0.016 | inactive: -0.04 | inactive: -0.035 | inactive: -0.018 | inactive: 0.036 | inactive: -0.029 | inactive: 0.054
16 | PDS5A (UniProt Q29RF7) | inactive: -0.213 | inactive: -0.447 | inactive: 0.137 | inactive: 0.29 | – | inactive: 0.012 | inactive: -0.107 | – | inactive: 0.042 | inactive: -0.203
17 | PCYT1B (UniProt Q9Y5K3) | inactive: -0.105 | active: -0.315 | inactive: 0.08 | inactive: 0.001 | – | inactive: 0 | inactive: 0.012 | – | inactive: -0.007 | inactive: 0.035
18 | PCLAF (UniProt Q15004) | inactive: 0.085 | inactive: 0.124 | inactive: -0.046 | inactive: 0.185 | – | inactive: 0.035 | inactive: -0.087 | – | inactive: 0.001 | inactive: 0.015
19 | PEX13 (UniProt Q92968) | inactive: -0.053 | inactive: -0.049 | inactive: -0.038 | inactive: -0.009 | – | inactive: 0.047 | inactive: 0.019 | – | inactive: 0.02 | inactive: -0.378
20 | PDLIM7 (UniProt Q9NR12) | inactive: -0.084 | active: -0.24 | inactive: 0.012 | inactive: 0.013 | – | inactive: -0.064 | inactive: 0.039 | – | inactive: 0.023 | inactive: -0.021
21 | PDZD11 isoform 2 (UniProt Q5EBL8) | inactive: 0.034 | inactive: -0.142 | inactive: -0.003 | inactive: 0.109 | inactive: -0.155 | inactive: 0.004 | inactive: -0.077 | inactive: -0.013 | inactive: -0.062 | inactive: 0.001
22 | PDE4DIP isoform 4 (UniProt Q5VU43) | inactive: 0.013 | inactive: 0.005 | inactive: -0.071 | inactive: -0.012 | – | inactive: -0.009 | inactive: -0.035 | – | inactive: -0.046 | inactive: 0.006
23 | PAFAH1B3 (UniProt Q15102) | inactive: -0.017 | inactive: 0.011 | inactive: 0.042 | inactive: 0.063 | – | inactive: -0.098 | inactive: 0.069 | – | inactive: -0.012 | inactive: 0.001
24 | PAPOLA (UniProt P51003) | inactive: -0.001 | inactive: -0.049 | inactive: 0.044 | inactive: 0.044 | inactive: 0.004 | inactive: -0.06 | inactive: -0.018 | inactive: 0.038 | inactive: -0.095 | inactive: -0.009
25 | PDCD4 (UniProt Q53EL6) | inactive: -0.26 | active: -0.585 | inactive: -0.013 | inactive: 0.055 | – | inactive: -0.053 | inactive: 0.065 | – | inactive: -0.107 | inactive: 0.011
26 | PALM3 (UniProt A6NDB9) | inactive: 0.192 | inactive: 0.065 | inactive: 0.025 | inactive: -0.008 | inactive: 0.01 | inactive: 0.145 | inactive: -0.015 | inactive: 0.001 | inactive: -0.128 | inactive: 0.114
27 | PCCB isoform 2 (UniProt P05166) | inactive: 0.094 | inactive: 0.121 | inactive: 0 | inactive: 0.044 | inactive: -0.067 | inactive: -0.02 | inactive: -0.036 | inactive: 0.007 | inactive: -0.089 | inactive: 0.029

Reprinted, nos. 7–11
Row | Target | log2 fold change [1] | log2 fold change (volasertib) | log2 fold change [2] | log2 fold change (epoxomicin) | log2 fold change [3] | log2 fold change [4] | log2 fold change [5] | log2 fold change (rosiglitazone) | log2 fold change [6] | log2 fold change [7]
7 | PAGE2 (UniProt Q7Z2X7) | inactive: 0.085 | inactive: -0.047 | inactive: -0.025 | inactive: 0.118 | inactive: -0.064 | inactive: 0.067 | inactive: 0.009 | inactive: 0.002 | inactive: -0.11 | inactive: 0.013
8 | PC (UniProt P11498) | inactive: -0.041 | inactive: -0.069 | inactive: 0.067 | inactive: 0.041 | – | inactive: -0.217 | inactive: 0.027 | – | inactive: -0.128 | inactive: 0.03
9 | PDIA4 (UniProt P13667) | inactive: 0.003 | inactive: -0.004 | inactive: 0.027 | inactive: 0.022 | inactive: 0.053 | inactive: 0.003 | inactive: -0.011 | inactive: -0.006 | inactive: 0.005 | inactive: 0.111
10 | PCSK9 (UniProt Q8NBP7) | inactive: -0.049 | inactive: -0.117 | inactive: 0.015 | inactive: -0.054 | inactive: -0.008 | inactive: 0.079 | inactive: 0.03 | inactive: -0.004 | – | inactive: 0.097
11 | PELO (UniProt Q9BRX2) | inactive: -0.017 | inactive: -0.387 | inactive: 0.09 | inactive: -0.058 | – | inactive: 0.007 | inactive: -0.017 | – | inactive: 0.138 | inactive: -0.312
